Results are given in words; binding and its absence hold for the method and conditions named. Binding seen in cells or lysates may run through a third protein. Some entries that bind do so weakly or less than the wild type. Where a sequence is shown, tags or fusion partners need not be part of it.

Sequences of proteins named here, by UniProt entry; tags and fusion partners are left off.
UniProt Q9NQT8: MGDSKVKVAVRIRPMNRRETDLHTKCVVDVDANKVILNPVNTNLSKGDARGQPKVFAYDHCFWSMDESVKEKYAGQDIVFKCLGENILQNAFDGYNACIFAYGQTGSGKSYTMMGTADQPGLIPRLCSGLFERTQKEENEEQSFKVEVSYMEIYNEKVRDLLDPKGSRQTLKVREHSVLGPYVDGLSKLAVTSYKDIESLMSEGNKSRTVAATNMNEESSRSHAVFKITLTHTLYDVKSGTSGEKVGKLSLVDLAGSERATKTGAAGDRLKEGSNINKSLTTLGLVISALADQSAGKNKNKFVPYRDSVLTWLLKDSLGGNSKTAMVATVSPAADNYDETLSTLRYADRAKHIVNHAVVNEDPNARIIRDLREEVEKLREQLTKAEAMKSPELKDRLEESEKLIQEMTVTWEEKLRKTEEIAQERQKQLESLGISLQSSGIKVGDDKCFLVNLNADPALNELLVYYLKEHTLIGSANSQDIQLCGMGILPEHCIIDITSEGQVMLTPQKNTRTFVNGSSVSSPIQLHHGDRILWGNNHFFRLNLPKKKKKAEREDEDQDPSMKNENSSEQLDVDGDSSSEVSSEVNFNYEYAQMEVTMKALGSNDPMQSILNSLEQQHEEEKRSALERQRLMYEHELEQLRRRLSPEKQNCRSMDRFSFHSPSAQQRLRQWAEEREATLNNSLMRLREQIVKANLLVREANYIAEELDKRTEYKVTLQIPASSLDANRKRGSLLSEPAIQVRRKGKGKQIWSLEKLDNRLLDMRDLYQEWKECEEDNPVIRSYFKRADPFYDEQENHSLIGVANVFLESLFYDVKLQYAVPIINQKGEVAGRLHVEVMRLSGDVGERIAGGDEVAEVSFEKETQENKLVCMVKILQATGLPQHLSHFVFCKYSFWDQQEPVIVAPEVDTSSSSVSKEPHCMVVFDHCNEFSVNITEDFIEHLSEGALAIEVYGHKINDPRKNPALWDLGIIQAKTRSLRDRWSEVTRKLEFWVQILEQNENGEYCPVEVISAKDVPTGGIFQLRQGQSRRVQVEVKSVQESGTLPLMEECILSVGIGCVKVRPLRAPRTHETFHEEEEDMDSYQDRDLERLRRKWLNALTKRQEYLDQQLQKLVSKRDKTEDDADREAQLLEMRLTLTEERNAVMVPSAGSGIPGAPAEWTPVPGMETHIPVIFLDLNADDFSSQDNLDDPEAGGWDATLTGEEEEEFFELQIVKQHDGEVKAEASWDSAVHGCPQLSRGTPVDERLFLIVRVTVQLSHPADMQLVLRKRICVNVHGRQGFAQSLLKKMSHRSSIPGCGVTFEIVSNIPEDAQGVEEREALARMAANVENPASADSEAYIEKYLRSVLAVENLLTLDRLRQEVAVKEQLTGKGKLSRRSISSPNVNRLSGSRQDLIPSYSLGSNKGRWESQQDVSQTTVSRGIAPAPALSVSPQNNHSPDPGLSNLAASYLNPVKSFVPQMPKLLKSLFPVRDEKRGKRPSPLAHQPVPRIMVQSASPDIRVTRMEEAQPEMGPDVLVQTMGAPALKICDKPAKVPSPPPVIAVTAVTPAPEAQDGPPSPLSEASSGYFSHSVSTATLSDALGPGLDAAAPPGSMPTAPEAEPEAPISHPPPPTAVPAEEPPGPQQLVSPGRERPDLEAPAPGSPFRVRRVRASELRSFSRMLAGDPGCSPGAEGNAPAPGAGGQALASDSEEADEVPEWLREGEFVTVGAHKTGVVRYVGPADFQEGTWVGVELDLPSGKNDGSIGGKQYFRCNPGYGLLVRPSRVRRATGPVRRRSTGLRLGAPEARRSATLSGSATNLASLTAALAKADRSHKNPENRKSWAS

In the experiment the target is T1, human perilipin 5 with HA (hPLIN5-HA) (human) (UniProt Q00G26).
T1 sequence: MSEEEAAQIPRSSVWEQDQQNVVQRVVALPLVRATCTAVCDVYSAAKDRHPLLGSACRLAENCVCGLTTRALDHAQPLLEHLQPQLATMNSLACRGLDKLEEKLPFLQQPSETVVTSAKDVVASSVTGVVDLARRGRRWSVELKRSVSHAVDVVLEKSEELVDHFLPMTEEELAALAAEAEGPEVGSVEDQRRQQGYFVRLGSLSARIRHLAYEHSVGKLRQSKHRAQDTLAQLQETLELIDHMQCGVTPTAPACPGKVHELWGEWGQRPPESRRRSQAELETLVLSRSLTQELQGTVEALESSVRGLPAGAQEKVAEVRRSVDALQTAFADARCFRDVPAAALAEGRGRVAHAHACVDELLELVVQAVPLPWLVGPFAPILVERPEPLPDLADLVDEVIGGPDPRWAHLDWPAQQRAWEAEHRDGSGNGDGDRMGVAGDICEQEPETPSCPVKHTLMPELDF
As to the kind of experiment: co-IP; NRCMs transfected with hKIF13B-GFP and hPLIN5-HA; IgG control named in the legend; which protein was precipitated is not told.

Consider “human kinesin family member 13B with GFP (hKIF13B-GFP) (from UniProt Q9NQT8 1-1826)”, for which the binding result is given as “binds”.
